Some entries share one result that the patent states for a list of compounds.
Assay: Solubility in cyanoacrylate monomer
Assay type: physicochemical
Conditions: soluble at least up to

SMILES | Solubility in cyanoacrylate monomer
Oc1cc(Cl)ccc1Oc1ccc(Cl)cc1Cl [2,4,4′-trichloro-2′-hydroxydiphenyl ether, reference compound] | ≥ 15,000 ppm
Cc1ccc(S(=O)(=O)C(I)I)cc1 [DIMPTS, diiodomethyl-p-tolylsulfone] | ≥ 15,000 ppm
